Assay results reported in PMC7819943, “Rice protein-binding microarrays: a tool to detect cis-acting elements near promoter regions in rice”.
Some of the results follow.

The chains behind the UniProt entries cited, without tags or fusion partners.
UniProt Q0JBA9, entry or part of it: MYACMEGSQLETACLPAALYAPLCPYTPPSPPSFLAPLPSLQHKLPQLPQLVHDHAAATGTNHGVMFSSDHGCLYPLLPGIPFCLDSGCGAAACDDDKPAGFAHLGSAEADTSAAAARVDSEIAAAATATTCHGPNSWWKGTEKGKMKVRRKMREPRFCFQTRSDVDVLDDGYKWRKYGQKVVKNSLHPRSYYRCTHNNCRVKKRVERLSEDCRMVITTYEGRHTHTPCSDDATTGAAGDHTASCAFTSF

These sequences were tested against OsWRKY34 (Oryza sativa, UniProt Q0JBA9 1-250) (assay: protein-binding microarray (RPBM); PBS, 2% BSA, 51.3 ng/ul salmon testes DNA, 50 uM zinc acetate, 200 nM TF, 25 C, 1 h; high values mean tight binding). Conditions: protein: recombinant; tags: N-terminal polyhistidine and DsRed monomer fusion (pET32a); label: CyDye5-dUTP incorporated in the synthesized complementary strand; 3' TTTTT single-stranded linker to array surface; dsDNA, one strand shown.
Summary of the method: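 Using Ni–NTA, transcription factors fused N-terminally to polyhistidine and DsRed were purified after expression in E. coli BL21-CodonPlus. These were incubated at 200 nM with a blocked, double-stranded custom Agilent array for 1 h at 25 °C in a buffer containing 50 µM zinc acetate, and the array was washed. The binding signal is per-feature fluorescence intensity (arbitrary units) on an Axon 4000B scanner.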

Sequence | binding signal
TATTTTTTGGACTGGTTTCATATGTTTGTGGTACAATTTACGGAGTCACCTAGTGCAG | 10100 fluorescence intensity (a.u.)
CGTATTTTAATATATGACGCCCGCCGTTGACTTTTTGTCTCGGAGTCACCTAGTGCAG | 27800 fluorescence intensity (a.u.)
TATCTCGCTCTTGTCCTCTTCGCTTCGTTTTGTATATAAACGGAGTCACCTAGTGCAG | 11000 fluorescence intensity (a.u.)
TTCTATTCCTCTCTCTCTCTCTCTCTCTCTCTCTCTCTCTCGGAGTCACCTAGTGCAG | 9550 fluorescence intensity (a.u.)
TTTTTAATAGATAACGTCGTTGACTTTTTCTCACATGTTTCGGAGTCACCTAGTGCAG | 25600 fluorescence intensity (a.u.)
GTTCTGCCGAGATCATCTTGCTGCTTGTGTTCCATTTGGACGGAGTCACCTAGTGCAG | 8290 fluorescence intensity (a.u.)
CTCATCTCCCATCTTCCCCACGCCACCAAACCCCGAGAACCGGAGTCACCTAGTGCAG | 8620 fluorescence intensity (a.u.)
TCCCCTTCCTCATCTCCGCCTCGCCTCCACCGGCCGTGATCGGAGTCACCTAGTGCAG | 8420 fluorescence intensity (a.u.)
TTTGTGTTCATGGCCCTCTCCTCTTTCCTGGCCCATCTGACGGAGTCACCTAGTGCAG | 9350 fluorescence intensity (a.u.)
GACGGCGCTAACCACCCACCAGCCCACGTCCCAGTCTCTCCGGAGTCACCTAGTGCAG | 9980 fluorescence intensity (a.u.)
CGCGGGGCCCACCCACCACCTCCTCTCCGCGACGTTTCGACGGAGTCACCTAGTGCAG | 8270 fluorescence intensity (a.u.)
CTAATAGGCCATGTCTGGATAATGGGTTTGGGATATGATTCGGAGTCACCTAGTGCAG | 8210 fluorescence intensity (a.u.)
ATATATATATATATATATATATATATATAGAGCGCGCACTCGGAGTCACCTAGTGCAG | 21200 fluorescence intensity (a.u.)
ATCATCATCGTCATCACCGCGCATCCCCATAGTCCTCAACCGGAGTCACCTAGTGCAG | 8660 fluorescence intensity (a.u.)
GGCTAGGTTGTGCGCGCCCTTCTCGATGTAGCAATAGCAACGGAGTCACCTAGTGCAG | 8520 fluorescence intensity (a.u.)
TTTAGGGCCTGTTCACTTTAATGTCATTTTCAACCTTACCCGGAGTCACCTAGTGCAG | 9260 fluorescence intensity (a.u.)
GCTGCACTCTTCTGTTCGGCAACAGCATCGCACCATCTCTCGGAGTCACCTAGTGCAG | 9060 fluorescence intensity (a.u.)
TCAGTCTTTTCAGTTCGGTCTTTTTCTGCCCACCCCTATACGGAGTCACCTAGTGCAG | 10800 fluorescence intensity (a.u.)
CCATTTGTACCAACTCATGATCGTCTTATCTTAGGACCTGCGGAGTCACCTAGTGCAG | 8880 fluorescence intensity (a.u.)
CCATTTTCAACCTTATCAAGTTTTGTCATTGTCAAATTTTCGGAGTCACCTAGTGCAG | 9530 fluorescence intensity (a.u.)
TTACTAATATTGCGGGCCATCCGATCCTGACCGTTGAATCCGGAGTCACCTAGTGCAG | 8340 fluorescence intensity (a.u.)

Look-ups from the entries so far:
binding signal with TATCTCGCTCTTGTCCTCTTCGCTTCGTTTTGTATATAAACGGAGTCACCTAGTGCAG reads 11000 fluorescence intensity (a.u.)
binding signal with ATCATCATCGTCATCACCGCGCATCCCCATAGTCCTCAACCGGAGTCACCTAGTGCAG reads 8660 fluorescence intensity (a.u.)
binding signal with ATATATATATATATATATATATATATATAGAGCGCGCACTCGGAGTCACCTAGTGCAG reads 21200 fluorescence intensity (a.u.)
binding signal with TTTGTGTTCATGGCCCTCTCCTCTTTCCTGGCCCATCTGACGGAGTCACCTAGTGCAG reads 9350 fluorescence intensity (a.u.)

Continuation:

Sequence | binding signal
TACTATACCACTTACTACTAAGTATTCTGCGCACAAACAGCGGAGTCACCTAGTGCAG | 10800 fluorescence intensity (a.u.)
GGATGATTCAATCTTTGCTATTTGCCTTATCCACCTTAAACGGAGTCACCTAGTGCAG | 10900 fluorescence intensity (a.u.)
ATTTTTCTACAAAATTAGTCAAACTTGTAGTAGTTTGATTCGGAGTCACCTAGTGCAG | 9940 fluorescence intensity (a.u.)
CTCTCATGTGACCGACCACCGCATCCTCAGTTGACCTGTCCGGAGTCACCTAGTGCAG | 9780 fluorescence intensity (a.u.)
TTGTATCTTTTTGGTTAATTTTTTTCAGTTTATCACTTGACGGAGTCACCTAGTGCAG | 8100 fluorescence intensity (a.u.)
TCGGTGCGGCTTTTTCTTTCTCTCTCTTTTTTTAAGCACCCGGAGTCACCTAGTGCAG | 13000 fluorescence intensity (a.u.)
CACAGTTATGCTATCACCTATCATGTCATAACTTATCTAACGGAGTCACCTAGTGCAG | 8360 fluorescence intensity (a.u.)
TTGATTGTTGTTTTTTTTTCCATTTCCCATCTGCCAGTATCGGAGTCACCTAGTGCAG | 8800 fluorescence intensity (a.u.)
ATTTTTTTTCCACCAACAATGTTTCAGCTAGTGTACTCATCGGAGTCACCTAGTGCAG | 8480 fluorescence intensity (a.u.)
AACTAGGGTGTAGGGGTGGACTTGACACGCGGGCCTGCAGCGGAGTCACCTAGTGCAG | 9310 fluorescence intensity (a.u.)
CCAAATCTCTGCCTCTTGTGTTCAGTGCTTGTGACGGCAACGGAGTCACCTAGTGCAG | 8960 fluorescence intensity (a.u.)
AGCACCCTACTCCTATATTTGCATTCATCCAGTACGTGTTCGGAGTCACCTAGTGCAG | 9610 fluorescence intensity (a.u.)
TGCAAACACCTGCACATCACTACGCCGACAGCTTAAAATTCGGAGTCACCTAGTGCAG | 8170 fluorescence intensity (a.u.)
CTTGGGGCCTAATGCTGTCTGGGCTTGGGCCGGCCCACTCCGGAGTCACCTAGTGCAG | 8560 fluorescence intensity (a.u.)
CTGTGACACTTCTTGGCATCTGCTGCACAAACTATACATTCGGAGTCACCTAGTGCAG | 8610 fluorescence intensity (a.u.)
TCACCTCGCCGCTGTGCTCCCACACTCTATCTTCTCTTTCCGGAGTCACCTAGTGCAG | 9800 fluorescence intensity (a.u.)
CCTCCTCGTCAGTTTGCCCTTGTCCACCGCCTCCGCCTCCCGGAGTCACCTAGTGCAG | 8140 fluorescence intensity (a.u.)
TCTAACCCATCCCTGTTTCAGCTATTATTCTTTAATGACTCGGAGTCACCTAGTGCAG | 8480 fluorescence intensity (a.u.)
CCGGGGACCACCTGTCAGTGACCTTTTATGGTGGGGTAGGCGGAGTCACCTAGTGCAG | 10200 fluorescence intensity (a.u.)
TGCTCTTTTTCCAACCGATCCATGTCACCCTCAAGCTTCTCGGAGTCACCTAGTGCAG | 9230 fluorescence intensity (a.u.)
GCTGTTTTGTGGTTTTGTCACAAGATCGAATCCAAGAGTTCGGAGTCACCTAGTGCAG | 8290 fluorescence intensity (a.u.)
